No constants are given. Whether binding was seen depends on the method and setting. In cells and extracts the contact can be indirect. Some results given as binding are weak or reduced against the parent protein; the word gives no strength.
Target: β2-GFP nAChR subunit (mouse (β2-GFP knockin mouse)) (UniProt Q9ERK7)
Assay: co-IP; rabbit anti-GFP antibodies on Dynabeads A; homogenate (13 mg/ml) of β2-GFP knockin dorsal brain regions containing the DRN, 3 days rotating at RT; 50 mM Tris, 150 mM NaCl, 0.75% Triton-X 100, protease inhibitors; Western blot with anti-lynx1

By UniProt entry, the sequences of proteins in these tests, tags left out.
UniProt Q9ERK7: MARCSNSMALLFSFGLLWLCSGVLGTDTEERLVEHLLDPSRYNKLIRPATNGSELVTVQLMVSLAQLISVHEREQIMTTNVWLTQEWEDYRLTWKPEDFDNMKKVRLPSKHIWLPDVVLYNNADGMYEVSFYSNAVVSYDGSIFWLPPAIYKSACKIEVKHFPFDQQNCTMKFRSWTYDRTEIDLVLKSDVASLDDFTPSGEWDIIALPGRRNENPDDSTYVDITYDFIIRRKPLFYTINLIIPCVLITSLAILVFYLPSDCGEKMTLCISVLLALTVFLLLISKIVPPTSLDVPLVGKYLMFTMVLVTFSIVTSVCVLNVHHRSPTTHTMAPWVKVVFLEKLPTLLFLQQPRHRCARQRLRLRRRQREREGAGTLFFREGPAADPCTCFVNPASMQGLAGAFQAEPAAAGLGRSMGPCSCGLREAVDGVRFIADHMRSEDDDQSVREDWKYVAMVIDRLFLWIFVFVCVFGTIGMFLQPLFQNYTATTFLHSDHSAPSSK

binding: binds
B1: lynx1 (protein, UniProt P0DP60 21-92)
chain: LECHVCAYNGDNCFKPMRCPAMATYCMTTRTYFTPYRMKVRKSCVPSCFETVYDGYSKHASATSCCQYYLCN

Reference: paper PMC6029753
